The data set concerns SD rats. In words: Long-term (7 d) diuretic activity in rats. Format: in vivo, rat. The following applies: Western blot. On the procedure: In a single-dose administration experiment, male wild-type (WT) mice, UT-B^−/− mice, UT-A1^−/− mice, or SD rats were adapted in metabolic cages for 3 d. Food and water were provided ad libitum throughout the experiment. Prior to administration, the bladder of each animal was emptied through gentle abdominal massage, and urine was collected from the metabolic cages every 2 h. Compound E3, suspended in 0.5% CMC-Na at an appropriate concentration, was administered intragastric gavage to the mice or rats (0.16, 0.8, 4, or 20 mg/kg). Vehicle control comprised 0.5% (w/v) CMC-Na. Urinary parameters were determined through the following: volume: Gravimetric analysis (1 g/mL density assumption); osmolality: freezing-point osmometry (Micro-osmometer, Fisker Associates, Norwood, MA, USA); and urea: diacetyl oxime colorimetry (QuantiChrom® kit, Elabscience, Wuhan, China). […] Body weight was measured daily. […] Inner medulla and outer medulla tissue homogenates were prepared, and the supernatant after centrifugation was analyzed for solute concentration and osmolality. Urinary osmolality and urea concentration were measured as above. Serum Na^+, K^+, and Cl^− were measured in a clinical chemistry laboratory, while serum creatinine, ALT, and AST were measured through specific reagent kits (NJJC Bio, Nanjing, China). […]

As for `CC(=O)c1ccc(C(=O)Nc2cccc(NS(=O)(=O)c3ccccc3)c2)o1` [Compound E3, 5-acetyl-N-(3-(phenylsulfonamido)phenyl)furan-2-carboxamide], for the setting “20 mg/kg”, the “AQP2 expression in medullary tissue” value is recorded as “lower than control rats”. Besides, the “expression levels of UT-A1, UT-A2, UT-A3, UT-B and AQP3 in medullary tissue” value (4 and 20 mg/kg) is on record as “did not significantly alter”.
